According to US20110034714A1, “METAL COMPLEX COMPOUND, CANCER THERAPEUTIC AGENT COMPOSITION CONTAINING THE METAL COMPLEX COMPOUND AS AN ACTIVE INGREDIENT, AND INTERMEDIATE FOR THE METAL COMPLEX COMPOUND” (priority 2007, published 2011):
For at least one compound, name, drawing or mass did not settle the structure.

Experiment: Adsorption of the platinum complex to hydroxyapatite in HEPES buffer (31P-NMR and atomic absorption photometry)
Assay type: physicochemical
Details: 1.5 hours at 37° C.

SMILES: CCOP1(=O)CP(=O)(OCC)[O][Pt]([NH2])([NH2])[O]1 (centres unmarked) [Compound 3]
- absorption to hydroxyapatite (5 mg hydroxyapatite in 2 mL HEPES buffer): 20%
- absorption to hydroxyapatite (10 mg hydroxyapatite in 2 mL HEPES buffer): 40%
- absorption to hydroxyapatite (20 mg hydroxyapatite in 2 mL HEPES buffer): 55%
- absorption to hydroxyapatite (40 mg hydroxyapatite in 2 mL HEPES buffer): 70%
- absorption to hydroxyapatite (80 mg hydroxyapatite in 2 mL HEPES buffer): 75%
